# The name of at least one read-out is uncertain.
# Assay: Equilibrium solubility of itraconazole in water and buffers at 10 wt % cyclodextrin
# Assay type: physicochemical
# Settings: identical conditions
# Method: Stock solutions of cyclodextrins were prepared by dissolving an accurately weighed amount of previously dried cyclodextrin in water or in buffer to give a final cyclodextrin concentration of 10 wt %. In this example, the cyclodextrins were HBenBCD, HPBCD, and SBEBCD. The buffers were 0.05 M pH3 phosphate, 0.05 M pH 3 citrate, and 0.05 M pH 4.8 acetate.
# The following is a typical procedure for determining the solubility of a drug in a given solvent. To each well of a 2 mL 96-well polypropylene mixing plate was added excess drug (ca. 5-10 mg). The drug was typically added by using a metal loading plate having cavities that will hold an approximate predetermined amount of drug. The cavities on the loading plate were arranged so that they corresponded to the individual wells of the 96-well mixing plate. […]
# The drug content in each well can be determined by a number of methods. […] Typically, 10-20 μL of drug solution was transferred to the corresponding well of a 96-well measurement plate (UV-STAR plates from Greiner with a spectral range of 190-400 nm) and diluted with 1/1 water/ethanol so that the absorbance was in the linear response range. Measurements were made using a SpectraMax Plus 384 Molecular Devices multi-well plate reader. Absorbance was converted to drug concentration using the appropriate absorbtivity for the drug. […]
substance,measurement,value
itraconazole,increase in itraconazole solubility with HBenBCD relative to HPBCD,4.5 X

# — US20070082870A1, “Pharmaceutical formulations of cyclodextrins and antifungal azole compounds” (priority 2005, published 2007)
